The supplement of paper PMC10849652
Some of the results follow. Residues, ends and D or L forms follow the SMILES beside them. *: point of attachment. Cbz = O=C(OCc1ccccc1)*

Chains of the proteins cited; added tags and fusions are not shown. Lines headed by an entry give the natural chain unless they say otherwise; changes in a name come on top.
UniProt P07099: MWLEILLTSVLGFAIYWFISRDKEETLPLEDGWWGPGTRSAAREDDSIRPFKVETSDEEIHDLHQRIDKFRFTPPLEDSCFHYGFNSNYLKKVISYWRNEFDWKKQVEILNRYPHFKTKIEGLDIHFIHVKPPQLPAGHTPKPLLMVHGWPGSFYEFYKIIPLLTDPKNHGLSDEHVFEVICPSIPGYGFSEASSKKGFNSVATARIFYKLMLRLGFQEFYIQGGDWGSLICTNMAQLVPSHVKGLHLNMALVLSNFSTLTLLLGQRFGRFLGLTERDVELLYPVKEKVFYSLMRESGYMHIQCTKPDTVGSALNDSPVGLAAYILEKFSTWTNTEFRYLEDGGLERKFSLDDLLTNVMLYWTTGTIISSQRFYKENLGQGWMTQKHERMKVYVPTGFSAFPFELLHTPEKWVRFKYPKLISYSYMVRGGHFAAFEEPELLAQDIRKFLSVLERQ
UniProt Q7L775: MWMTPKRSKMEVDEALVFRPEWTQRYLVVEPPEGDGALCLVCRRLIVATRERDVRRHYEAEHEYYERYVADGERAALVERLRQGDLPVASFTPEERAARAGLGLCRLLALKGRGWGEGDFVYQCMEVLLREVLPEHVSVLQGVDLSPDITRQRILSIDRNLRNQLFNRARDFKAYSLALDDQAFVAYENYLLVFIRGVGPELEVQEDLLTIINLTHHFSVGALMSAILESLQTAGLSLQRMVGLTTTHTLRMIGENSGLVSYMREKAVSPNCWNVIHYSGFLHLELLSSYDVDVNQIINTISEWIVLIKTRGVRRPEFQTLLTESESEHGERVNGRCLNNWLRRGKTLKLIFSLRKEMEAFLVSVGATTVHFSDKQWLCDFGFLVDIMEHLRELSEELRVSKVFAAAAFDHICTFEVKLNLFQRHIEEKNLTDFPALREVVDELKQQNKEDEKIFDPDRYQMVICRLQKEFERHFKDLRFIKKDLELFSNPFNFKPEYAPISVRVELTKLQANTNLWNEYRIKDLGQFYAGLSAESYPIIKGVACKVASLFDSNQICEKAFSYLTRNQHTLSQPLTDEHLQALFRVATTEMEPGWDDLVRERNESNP
UniProt Q9UNN5: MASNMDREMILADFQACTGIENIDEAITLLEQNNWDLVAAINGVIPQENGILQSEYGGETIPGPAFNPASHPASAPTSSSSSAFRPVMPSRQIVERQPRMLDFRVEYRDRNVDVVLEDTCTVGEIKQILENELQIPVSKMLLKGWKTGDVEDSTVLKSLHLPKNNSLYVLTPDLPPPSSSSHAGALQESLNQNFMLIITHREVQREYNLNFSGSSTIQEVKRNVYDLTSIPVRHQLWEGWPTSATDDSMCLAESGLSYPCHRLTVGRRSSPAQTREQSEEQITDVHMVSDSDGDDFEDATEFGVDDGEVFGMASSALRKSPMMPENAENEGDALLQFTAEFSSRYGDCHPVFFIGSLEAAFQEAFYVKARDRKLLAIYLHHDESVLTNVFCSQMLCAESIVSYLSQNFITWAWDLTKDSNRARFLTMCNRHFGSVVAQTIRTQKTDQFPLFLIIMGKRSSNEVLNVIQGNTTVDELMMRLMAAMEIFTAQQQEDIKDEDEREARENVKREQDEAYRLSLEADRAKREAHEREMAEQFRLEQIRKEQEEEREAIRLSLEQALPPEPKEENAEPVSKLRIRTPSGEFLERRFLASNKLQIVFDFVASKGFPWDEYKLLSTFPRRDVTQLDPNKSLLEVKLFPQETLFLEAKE
UniProt Q7Z309: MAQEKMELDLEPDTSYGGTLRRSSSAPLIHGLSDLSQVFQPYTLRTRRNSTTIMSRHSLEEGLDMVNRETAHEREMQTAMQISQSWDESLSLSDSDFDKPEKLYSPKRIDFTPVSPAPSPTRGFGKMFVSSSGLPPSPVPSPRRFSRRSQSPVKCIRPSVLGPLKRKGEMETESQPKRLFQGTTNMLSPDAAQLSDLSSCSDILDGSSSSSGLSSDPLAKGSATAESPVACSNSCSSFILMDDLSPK
UniProt Q9BPY3: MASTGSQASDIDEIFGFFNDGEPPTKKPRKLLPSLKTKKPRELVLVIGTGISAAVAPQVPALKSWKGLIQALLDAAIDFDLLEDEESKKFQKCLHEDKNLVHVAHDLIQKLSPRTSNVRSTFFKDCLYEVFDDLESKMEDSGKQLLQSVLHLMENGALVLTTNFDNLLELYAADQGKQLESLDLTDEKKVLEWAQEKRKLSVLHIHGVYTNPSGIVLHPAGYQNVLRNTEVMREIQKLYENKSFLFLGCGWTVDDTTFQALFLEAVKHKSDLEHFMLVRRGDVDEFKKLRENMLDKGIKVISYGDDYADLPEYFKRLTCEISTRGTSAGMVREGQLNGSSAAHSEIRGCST
UniProt Q0VG06: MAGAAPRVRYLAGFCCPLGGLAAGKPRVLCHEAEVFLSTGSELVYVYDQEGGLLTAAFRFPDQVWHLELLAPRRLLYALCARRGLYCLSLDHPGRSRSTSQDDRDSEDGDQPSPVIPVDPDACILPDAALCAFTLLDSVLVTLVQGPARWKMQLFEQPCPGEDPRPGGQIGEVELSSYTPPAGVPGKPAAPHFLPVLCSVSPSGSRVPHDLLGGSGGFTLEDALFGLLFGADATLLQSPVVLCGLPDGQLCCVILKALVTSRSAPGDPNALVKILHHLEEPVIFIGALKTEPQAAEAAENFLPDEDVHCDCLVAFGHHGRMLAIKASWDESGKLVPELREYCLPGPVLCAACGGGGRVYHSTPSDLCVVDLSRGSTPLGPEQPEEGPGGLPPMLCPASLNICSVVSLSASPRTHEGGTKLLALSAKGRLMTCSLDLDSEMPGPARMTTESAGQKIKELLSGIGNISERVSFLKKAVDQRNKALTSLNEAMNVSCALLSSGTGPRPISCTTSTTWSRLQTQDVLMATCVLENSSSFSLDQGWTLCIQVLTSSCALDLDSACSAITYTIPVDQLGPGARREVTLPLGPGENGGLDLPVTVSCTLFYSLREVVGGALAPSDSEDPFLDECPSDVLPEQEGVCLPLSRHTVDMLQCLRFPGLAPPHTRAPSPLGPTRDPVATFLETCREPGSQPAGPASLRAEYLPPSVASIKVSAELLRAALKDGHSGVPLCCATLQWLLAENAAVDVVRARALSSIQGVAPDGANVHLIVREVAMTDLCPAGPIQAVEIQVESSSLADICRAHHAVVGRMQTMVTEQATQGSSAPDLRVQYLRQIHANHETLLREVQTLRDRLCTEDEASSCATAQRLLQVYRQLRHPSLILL
UniProt Q5BKY9: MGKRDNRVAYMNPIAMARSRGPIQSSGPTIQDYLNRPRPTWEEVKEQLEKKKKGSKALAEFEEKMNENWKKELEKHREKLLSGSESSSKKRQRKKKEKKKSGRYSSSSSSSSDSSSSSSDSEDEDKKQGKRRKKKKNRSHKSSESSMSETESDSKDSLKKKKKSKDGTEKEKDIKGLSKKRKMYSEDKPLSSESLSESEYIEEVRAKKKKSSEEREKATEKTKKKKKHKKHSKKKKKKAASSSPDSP
UniProt P34913, whole entry, looked up: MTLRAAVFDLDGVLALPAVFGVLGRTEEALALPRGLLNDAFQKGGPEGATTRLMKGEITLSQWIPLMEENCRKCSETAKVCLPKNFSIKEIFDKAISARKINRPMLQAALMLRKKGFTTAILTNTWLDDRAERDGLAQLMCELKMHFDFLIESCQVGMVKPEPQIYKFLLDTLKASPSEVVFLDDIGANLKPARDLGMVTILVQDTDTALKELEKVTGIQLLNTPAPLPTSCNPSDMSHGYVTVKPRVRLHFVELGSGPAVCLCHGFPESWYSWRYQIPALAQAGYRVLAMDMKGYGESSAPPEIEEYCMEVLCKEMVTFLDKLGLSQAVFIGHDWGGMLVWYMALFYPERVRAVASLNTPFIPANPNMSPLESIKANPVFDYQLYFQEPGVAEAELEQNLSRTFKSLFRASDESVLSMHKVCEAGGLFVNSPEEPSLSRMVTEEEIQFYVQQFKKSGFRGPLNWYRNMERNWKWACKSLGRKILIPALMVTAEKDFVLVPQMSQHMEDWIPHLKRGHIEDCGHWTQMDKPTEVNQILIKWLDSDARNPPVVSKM
UniProt Q5W0V3: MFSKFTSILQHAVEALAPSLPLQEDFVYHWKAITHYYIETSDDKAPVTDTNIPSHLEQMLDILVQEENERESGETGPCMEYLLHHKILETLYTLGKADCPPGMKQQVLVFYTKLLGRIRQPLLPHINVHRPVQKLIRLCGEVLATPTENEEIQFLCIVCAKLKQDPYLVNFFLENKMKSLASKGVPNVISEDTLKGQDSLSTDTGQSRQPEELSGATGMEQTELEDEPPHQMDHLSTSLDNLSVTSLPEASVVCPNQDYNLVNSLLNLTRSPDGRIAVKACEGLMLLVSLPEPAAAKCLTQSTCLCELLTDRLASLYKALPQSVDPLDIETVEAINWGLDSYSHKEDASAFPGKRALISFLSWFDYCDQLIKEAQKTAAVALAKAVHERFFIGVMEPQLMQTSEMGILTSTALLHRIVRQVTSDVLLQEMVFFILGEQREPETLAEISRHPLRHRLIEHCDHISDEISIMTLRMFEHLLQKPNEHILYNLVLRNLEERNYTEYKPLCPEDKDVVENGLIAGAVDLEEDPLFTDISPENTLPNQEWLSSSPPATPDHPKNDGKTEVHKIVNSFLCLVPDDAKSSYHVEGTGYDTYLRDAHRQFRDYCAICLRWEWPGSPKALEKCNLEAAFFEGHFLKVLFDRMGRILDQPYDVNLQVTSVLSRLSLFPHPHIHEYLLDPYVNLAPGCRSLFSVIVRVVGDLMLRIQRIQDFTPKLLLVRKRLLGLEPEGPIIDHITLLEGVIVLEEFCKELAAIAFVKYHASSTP
UniProt Q03468, whole entry, looked up: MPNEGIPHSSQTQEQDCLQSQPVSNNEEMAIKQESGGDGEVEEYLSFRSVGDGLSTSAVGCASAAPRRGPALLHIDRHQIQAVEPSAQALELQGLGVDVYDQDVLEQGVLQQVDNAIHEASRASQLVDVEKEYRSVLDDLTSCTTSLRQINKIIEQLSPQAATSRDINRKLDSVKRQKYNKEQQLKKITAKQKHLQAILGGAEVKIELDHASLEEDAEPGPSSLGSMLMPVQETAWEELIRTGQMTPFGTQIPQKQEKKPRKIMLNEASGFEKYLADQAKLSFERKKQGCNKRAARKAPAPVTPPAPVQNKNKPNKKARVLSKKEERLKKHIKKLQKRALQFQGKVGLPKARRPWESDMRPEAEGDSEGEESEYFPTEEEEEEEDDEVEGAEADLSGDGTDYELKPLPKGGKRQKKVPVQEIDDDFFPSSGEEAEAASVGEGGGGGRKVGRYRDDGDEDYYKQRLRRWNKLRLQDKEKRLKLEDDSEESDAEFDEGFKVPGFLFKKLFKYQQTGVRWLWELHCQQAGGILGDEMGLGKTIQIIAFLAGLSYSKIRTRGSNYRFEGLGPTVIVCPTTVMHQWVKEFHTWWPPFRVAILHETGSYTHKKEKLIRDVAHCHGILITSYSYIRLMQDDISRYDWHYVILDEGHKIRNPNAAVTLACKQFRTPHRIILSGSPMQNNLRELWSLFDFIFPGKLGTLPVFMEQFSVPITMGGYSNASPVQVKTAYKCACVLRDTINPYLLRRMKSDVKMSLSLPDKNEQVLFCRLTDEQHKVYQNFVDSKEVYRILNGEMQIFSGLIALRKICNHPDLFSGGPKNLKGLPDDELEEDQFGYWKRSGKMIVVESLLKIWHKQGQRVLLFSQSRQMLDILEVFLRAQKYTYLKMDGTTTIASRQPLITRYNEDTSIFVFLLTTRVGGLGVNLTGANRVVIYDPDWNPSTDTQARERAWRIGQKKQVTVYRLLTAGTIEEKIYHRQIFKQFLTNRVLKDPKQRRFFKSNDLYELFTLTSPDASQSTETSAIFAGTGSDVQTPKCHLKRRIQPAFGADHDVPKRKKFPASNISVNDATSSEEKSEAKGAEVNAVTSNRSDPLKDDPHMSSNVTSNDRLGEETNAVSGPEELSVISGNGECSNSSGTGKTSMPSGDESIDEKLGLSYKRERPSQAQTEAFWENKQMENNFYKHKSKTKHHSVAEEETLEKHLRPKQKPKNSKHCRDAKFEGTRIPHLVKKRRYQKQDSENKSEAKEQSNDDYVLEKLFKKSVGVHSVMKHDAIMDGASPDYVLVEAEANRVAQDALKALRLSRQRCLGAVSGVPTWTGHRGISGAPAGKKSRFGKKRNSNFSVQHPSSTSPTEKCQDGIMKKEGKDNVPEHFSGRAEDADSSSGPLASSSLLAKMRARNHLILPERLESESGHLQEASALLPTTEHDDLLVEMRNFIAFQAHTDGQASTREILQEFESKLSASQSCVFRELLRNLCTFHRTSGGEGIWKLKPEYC

Legend:
Assay in all cases: log2 fold change, soluble protein after heating vs DMSO (PISA); higher = thermal stabilisation; K562 cells, 10 uM, 30 min; active = over 0.2 and 3.5 SD of the protein, either way, in both replicates (recomputed)
IRAK-1-4 Inhibitor I = compound: C1COCCN1CCN2C3=CC=CC=C3N=C2NC(=O)C4=CC(=CC=C4)[N+](=O)[O-] [IRAK-1-4 Inhibitor I]
Summary of the method: (§1)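 K562 cells (2×10^6 cells/mL) were treated with 10 μM compound for 30 min, and aliquots were heated for 3 min over 48°C-58°C. Pooled aliquots were extracted in PBS with 0.5% NP-40 at 4°C, and the supernatant after 21,000xg for 90 min was measured by TMTpro 16plex LC-MS/MS with channel sums equalised. Reported thermal stability, relative to control samples and from duplicates, is a log2 fold change.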

ibrutinib = compound: C=CC(=O)N1CCC[C@@H](n2nc(-c3ccc(Oc4ccccc4)cc3)c3c(N)ncnc32)C1 [ibrutinib]
Summary of the method: as §1

[1] = compound: CC(=O)c1cnc2ccc(-c3cc(Cl)c(O)c(Cl)c3)nc2c1N[C@H]1CC[C@H](CN(C)C)CC1
Summary of the method: as §1

ralimetinib = compound: CC(C)(C)Cn1c(N)nc2ccc(-c3[nH]c(C(C)(C)C)nc3-c3ccc(F)cc3)nc21 [ralimetinib]
Summary of the method: as §1

[2] = compound: CC(C)(O)CC(=O)NCCn1ccc2ncnc(Nc3ccc(Oc4cccc(C(F)(F)F)c4)c(Cl)c3)c21
Summary of the method: as §1

[3] = compound: CC(C)C1=C2N=C(C=C(N2N=C1)NCC3=CC=CC=C3)NCCCCCCN
Summary of the method: as §1

[4] = compound: CC(C)C[C@@H](C=O)NC(=O)[C@H](CC(C)C)NC(=O)[C@H](CC(C)C)NC(=O)OCc1ccccc1
Summary of the method: as §1

pinometostat = compound: CC(C)N(C[C@H]1O[C@@H](n2cnc3c(N)ncnc32)[C@H](O)[C@@H]1O)[C@H]1C[C@@H](CCc2nc3cc(C(C)(C)C)ccc3[nH]2)C1 [pinometostat]
Summary of the method: as §1

[5] = compound: CC1=C(C(CC(=O)N1)C2=CC=C(C=C2)C(F)(F)F)C(=O)NC3=C(C=C4C(=C3)C=NN4)F
Summary of the method: as §1

[6] = compound: CC1=C(C2=C(C=C1)C(=O)C3=CC=CC=C3N2CCCN)C
Summary of the method: as §1

Target	log2 fold change (IRAK-1-4 Inhibitor I)	log2 fold change (ibrutinib)	log2 fold change [1]	log2 fold change (ralimetinib)	log2 fold change [2]	log2 fold change [3]	log2 fold change [4]	log2 fold change (pinometostat)	log2 fold change [5]	log2 fold change [6]
FAHD1 (UniProt Q6P587)	inactive: 0.049	inactive: 0.075	inactive: -0.008	inactive: -0.023	inactive: 0.033	inactive: -0.037	inactive: -0.017	inactive: 0.005	inactive: 0.036	inactive: 0.005
EPHX1 (UniProt P07099)	inactive: 0.01	inactive: 0.034	inactive: -0.003	inactive: -0.044	inactive: 0.025	inactive: 0.042	inactive: -0.012	inactive: -0.04	inactive: 0.005	inactive: 0.011
EPM2AIP1 (UniProt Q7L775)	inactive: 0.003	inactive: -0.004	inactive: -0.016	inactive: -0.037	inactive: -0.019	inactive: -0.028	inactive: -0.002	inactive: 0.009	inactive: 0.009	inactive: 0.006
FAF1 (UniProt Q9UNN5)	inactive: 0.014	inactive: -0.017	inactive: 0.019	inactive: -0.027	inactive: -0.021	inactive: 0	inactive: -0.043	inactive: -0.036	inactive: 0.001	inactive: -0.049
FAM122B isoform 3 (UniProt Q7Z309)	inactive: -0.002	inactive: 0.076	inactive: -0.22	inactive: 0.012	inactive: 0.278	inactive: 0.052	inactive: -0.034	inactive: 0.016	inactive: 0.05	inactive: -0.044
ERP29 (UniProt P30040)	inactive: -0.002	inactive: 0.003	inactive: 0.022	inactive: 0.008	inactive: 0.037	inactive: -0.019	inactive: 0.006	inactive: -0.023	inactive: 0.001	inactive: -0.015
FAM120A isoform 6 (UniProt Q9NZB2)	inactive: -0.123	inactive: 0.098	inactive: 0.115	inactive: 0.072	inactive: 0.131	inactive: 0.046	inactive: 0.043	inactive: 0.094	inactive: -0.008	inactive: -0.301
ESD (UniProt P10768)	inactive: 0.021	inactive: 0.037	inactive: 0.017	inactive: -0.044	inactive: 0	inactive: 0.062	inactive: -0.021	inactive: -0.051	inactive: 0.024	inactive: 0.129
FAM114A2 (UniProt Q9NRY5)	inactive: 0.038	inactive: -0.03	inactive: 0.013	inactive: -0.017	inactive: -0.135	inactive: -0.201	inactive: 0.004	inactive: 0.005	–	inactive: -0.059
FAM118B (UniProt Q9BPY3)	inactive: 0.039	inactive: 0.073	inactive: -0.118	inactive: 0.051	inactive: -0.199	inactive: -0.145	inactive: 0.065	inactive: -0.024	–	inactive: 0.042
FAHD2A (UniProt Q96GK7)	inactive: 0.034	inactive: 0.016	inactive: 0	inactive: -0.029	inactive: -0.012	inactive: 0.074	inactive: 0.007	inactive: -0.05	inactive: -0.018	inactive: 0.026
EXTL2 (UniProt Q9UBQ6)	inactive: -0.018	inactive: 0.019	inactive: -0.073	inactive: -0.061	inactive: 0.062	inactive: 0.01	inactive: 0.041	inactive: 0	–	inactive: 0.12
ETNK1 (UniProt Q9HBU6)	inactive: 0.035	inactive: -0.05	inactive: 0.044	inactive: -0.017	inactive: -0.205	inactive: 0.087	inactive: 0.043	inactive: 0.019	–	inactive: 0.079
FAAP100 (UniProt Q0VG06)	inactive: 0.026	inactive: -0.247	inactive: -0.025	inactive: -0.065	inactive: -0.085	inactive: -0.043	inactive: -0.05	inactive: 0.013	–	inactive: 0.055
FADS3 (UniProt Q9Y5Q0)	inactive: 0.029	inactive: 0.018	inactive: -0.031	inactive: -0.064	inactive: -0.121	inactive: -0.011	inactive: 0.102	inactive: 0.038	–	inactive: 0.054
F5 (UniProt P12259)	inactive: 0.006	inactive: 0.064	inactive: 0.003	inactive: -0.042	inactive: 0.168	inactive: -0.088	inactive: 0.001	inactive: -0.016	–	inactive: -0.129

Target	log2 fold change (IRAK-1-4 Inhibitor I)	log2 fold change (ibrutinib)	log2 fold change [1]	log2 fold change (ralimetinib)	log2 fold change [2]	log2 fold change [3]	log2 fold change [4]	log2 fold change (pinometostat)	log2 fold change [5]	log2 fold change [6]
FAH isoform 2 (UniProt P16930)	inactive: -0.023	inactive: -0.192	inactive: -0.004	inactive: 0.034	inactive: -0.027	inactive: 0.06	inactive: -0.184	inactive: -0.026	inactive: 0.108	inactive: 0.003
FAM122A (UniProt Q96E09)	inactive: 0.002	inactive: 0.016	inactive: -0.015	inactive: -0.053	inactive: 0.105	inactive: 0.066	inactive: 0.016	inactive: -0.008	–	inactive: -0.117
FAM133B (UniProt Q5BKY9)	inactive: 0.013	inactive: 0.016	inactive: -0.084	inactive: -0.059	inactive: -0.021	inactive: -0.01	inactive: 0.1	inactive: -0.028	inactive: 0.067	inactive: -0.017
EXOC4 (UniProt Q96A65)	inactive: -0.123	inactive: -0.028	inactive: -0.007	inactive: 0.024	inactive: -0.099	active: -0.442	inactive: 0.04	inactive: 0.143	–	inactive: -0.01
EVC2 (UniProt Q86UK5)	inactive: 0.052	inactive: 0.032	inactive: -0.061	inactive: -0.15	inactive: 0.038	inactive: 0.064	inactive: 0.038	inactive: -0.011	–	inactive: -0.014
EPHX2 (UniProt P34913)	inactive: 0.044	inactive: 0.096	inactive: -0.024	inactive: -0.026	inactive: -0.018	active: 0.285	inactive: 0.012	inactive: 0.144	–	inactive: -0.006
EXOC8 (UniProt Q8IYI6)	inactive: -0.094	inactive: -0.001	inactive: 0.014	inactive: 0.049	inactive: -0.128	active: -0.317	inactive: -0.032	inactive: 0.051	–	inactive: -0.002
FAM177A1 isoform 2 (UniProt Q8N128)	inactive: 0.042	inactive: 0.038	inactive: 0.033	inactive: 0	inactive: -0.242	inactive: -0.245	inactive: 0.029	inactive: 0.081	–	inactive: -0.019
ERCC2 (UniProt P18074)	inactive: -0.01	inactive: 0.003	inactive: -0.165	inactive: 0.014	inactive: 0.016	inactive: -0.068	inactive: 0.03	inactive: 0.078	–	inactive: -0.016
EXOSC10 (UniProt Q01780)	inactive: 0.165	inactive: 0.033	inactive: 0.026	inactive: -0.261	inactive: -0.01	inactive: 0.213	inactive: 0.247	inactive: 0.059	–	inactive: 0.076
EXOC1 (UniProt Q9NV70)	inactive: -0.085	inactive: -0.015	inactive: -0.033	inactive: 0.112	inactive: -0.151	active: -0.419	inactive: 0.018	inactive: 0.214	–	inactive: 0.071
FAM160B1 (UniProt Q5W0V3)	inactive: 0.019	inactive: 0.012	inactive: 0.03	inactive: 0.005	inactive: -0.05	active: -0.285	inactive: 0.019	inactive: -0.019	–	inactive: -0.051
EPS15L1 isoform 2 (UniProt Q9UBC2)	inactive: -0.002	inactive: -0.024	inactive: 0.034	inactive: 0.002	inactive: -0.1	inactive: -0.144	inactive: 0.024	inactive: -0.021	inactive: -0.029	inactive: -0.146
ERCC6 (UniProt Q03468)	inactive: 0.05	inactive: -0.079	inactive: 0.11	inactive: 0.05	inactive: -0.094	inactive: -0.015	inactive: 0.018	inactive: -0.078	–	inactive: -0.041
EXOC7 (UniProt Q9UPT5)	inactive: -0.047	inactive: -0.029	inactive: 0.002	inactive: 0.049	inactive: -0.109	inactive: -0.276	inactive: 0.044	inactive: 0.043	–	inactive: 0.045

Pulled one by one from the entries so far, two records:
Target	log2 fold change (IRAK-1-4 Inhibitor I)	log2 fold change (ibrutinib)	log2 fold change [1]	log2 fold change (ralimetinib)	log2 fold change [2]	log2 fold change [3]	log2 fold change [4]	log2 fold change (pinometostat)	log2 fold change [5]	log2 fold change [6]
FAM133B (UniProt Q5BKY9)	inactive: 0.013	inactive: 0.016	inactive: -0.084	inactive: -0.059	inactive: -0.021	inactive: -0.01	inactive: 0.1	inactive: -0.028	inactive: 0.067	inactive: -0.017
ERCC6 (UniProt Q03468)	inactive: 0.05	inactive: -0.079	inactive: 0.11	inactive: 0.05	inactive: -0.094	inactive: -0.015	inactive: 0.018	inactive: -0.078	–	inactive: -0.041
